In PubChem BioAssay AID485349 (National Center for Advancing Translational Sciences (NCATS), 2010):
Out of some 320,000 compounds screened, about 620 (0.19%) were called active. Inconclusive means that the source gave no clear call. Such entries were picked first, then a sample of the others. The call rests on the fitted dose curve; in most records, active means well fitted activation curve with a large enough effect; inconclusive means small, poorly fitted or top-dose-only effect; inactive means no such curve, though single readings can be large or run the other way. A potency beside an inconclusive call is a rough fit, not a confirmed value.

test: qHTS Assay for Identifying a Potential Treatment of Ataxia-Telangiectasia; conditions: […] A-T fibroblasts, KAP-1 phosphorylation AlphaLISA; series mostly up to 57.5 µM; activation: at the top concentration; further: nearly all actives have a fitted effect of over 45% in size; on activation: % of control where 0% means no effect
Outline: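 hTERT-immortalized A-T patient fibroblasts ([…]), 500 cells/well in OPTI-MEM, 1% FBS, got compounds for 60 min, then NCS for 30 min at 37C. Lysates were then assayed for phospho-KAP-1 by AlphaLISA (anti-pKAP1 donor, anti-KAP1 acceptor beads), 6 hr at 25C.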
Potency means the concentration at half of the fitted maximal effect.

Q: For `COC(=O)c1ccc(C(=O)OC)c(NC(=O)Oc2ccccc2)c1`, which Potency is on record?
A: inconclusive: 22.4 µM [activator, partial curve] [neocarzinostatin DNA damage 30 min before lysis]

Q: Which Potency does the source give for `CSc1ccc(CN2CCN(Cc3ccccc3Cl)CC2)cc1` here?
A: inconclusive: 35.5 µM [activator, single point]

Q: For `CC(C)N(Cc1ccco1)/N=C/c1c(O)n(Cc2ccccc2)c(=O)[nH]c1=O`, which Potency is on record?
A: active: 39.8 µM

Q: With `CCN(CC)S(=O)(=O)c1cccc(N=Nc2c(O)n(CC)c(=S)n(CC)c2=O)c1` as the molecule, how does the Potency read?
A: inconclusive: 0.794 µM [activator, full curve, poor fit]

Q: Which Potency does the source give for `CCCCn1c(O)c(C=NCc2ccc3c(c2)OCO3)c(=O)[nH]c1=O` here?
A: inconclusive: 3.55 µM [activator, partial curve]

Q: With `CCOc1ccc(Cl)cc1CNCCc1ccccc1F` as the molecule, how does the Potency read?
A: inconclusive: 6.31 µM [activator, partial curve, poor fit]

Q: For `CCN1C(=O)NC(=O)/C(=C\c2ccc(N3CCOCC3)cc2OC)C1=O`, which “activation” value is on record?
A: inactive: -4.65%

Q: Which Potency does the source give for `O=C(Oc1ccccc1)N(c1ccccc1)c1ccccc1` here?
A: inconclusive: 31.6 µM [activator, partial curve] [neocarzinostatin DNA damage 30 min before lysis]

Q: With `CCCCC(=O)N/N=C/c1c(O)n(CCC2=CCCCC2)c(=O)[nH]c1=O` as the molecule, how does the Potency read?
A: active: 3.16 µM

Q: With `c1ccc2c(c1)-c1cccc3cccc-2c13` as the molecule, how does the Potency read?
A: inconclusive: 35.5 µM [activator, single point]

Q: For `Cc1cc(O)c2c(c1)C(=O)C13C(=C2O)C(=O)[C@H]2[C@@H](O)[C@@H]1[C@H]1[C@H](O)[C@@H]3C(=O)C3=C(O)c4c(O)cc(C)cc4C(=O)C312` (some centres not stated), which Potency is on record?
A: active: 8.91 µM

Q: With `CCC(C)N1C(=O)/C(=C\c2ccc(N3CCCCCC3)cc2)C(=O)NC1=S` (configuration not stated) as the molecule, how does the “activation” value read?
A: inactive: 0.823%

Q: For `CCOP(=S)(OCC)Oc1nc(Cl)c(Cl)cc1Cl`, which Potency is on record?
A: inconclusive: 39.8 µM [activator, single point]

Q: For `CCOP(=O)(Cc1cc(C(=O)CC)c(C)o1)OCC`, which “activation” value is on record?
A: inactive: -5.41%

Q: With `CCN1C(=O)N(CC)C(=O)C2(Cc3ccccc3N3CCN(c4ccccc4)CC32)C1=O` (configuration not stated) as the molecule, how does the Potency read?
A: inconclusive: 0.708 µM [activator, full curve, poor fit]

Q: For `N#CC1(c2ccccc2)CCN(C2CC(=O)N(c3ccc(F)cc3)C2=O)CC1` (configuration not stated), which “activation” value is on record?
A: inactive: -2.52%

Q: Which Potency does the source give for `COc1ccc(CCNCc2ccccc2)cc1` here?
A: inconclusive: 2.82 µM [activator, full curve, poor fit]

Q: Which Potency does the source give for `COc1ccc(CCNC(=O)c2c(N)n(CCN3CCOCC3)c3nc4ccccc4nc23)cc1` here?
A: inconclusive: 39.8 µM [activator, single point]

Q: For `C=CCOc1nc(-c2ccccc2Cl)nc2ccccc12`, which Potency is on record?
A: inconclusive: 39.8 µM [activator, single point] [neocarzinostatin DNA damage 30 min before lysis]

Q: With `Cn1c(=O)oc2cc(S(=O)(=O)N3CCc4ccccc43)ccc21` as the molecule, how does the Potency read?
A: active: 1 µM [neocarzinostatin DNA damage 30 min before lysis]

Q: With `Cc1cc(C(=O)CN2C(=O)c3ccccc3C2=O)c(C)n1C1CC1` as the molecule, how does the Potency read?
A: inconclusive: 28.2 µM [activator, partial curve] [neocarzinostatin DNA damage 30 min before lysis]

Q: With `COC(=O)C1=C(c2ccc(OCc3ccccc3)cc2)C[C@@H]2CC[C@H]1N2C(=O)NCc1cccc(C(F)(F)F)c1` as the molecule, how does the Potency read?
A: inconclusive: 6.31 µM [activator, single point] [neocarzinostatin DNA damage 30 min before lysis]

Q: With `O=C1Nc2ccccc2C1Cc1nc2ccccc2c(=O)n1-c1ccccc1` (configuration not stated) as the molecule, how does the Potency read?
A: inconclusive: 0.316 µM [activator, full curve]

Q: Which Potency does the source give for `O=C(c1cccnc1)C1CCCN(Cc2nc(-c3cnccn3)no2)C1` (configuration not stated) here?
A: inconclusive: 708 nM [activator, full curve, poor fit] [neocarzinostatin DNA damage 30 min before lysis]

Q: For `Cc1ccc(NP(=O)(Oc2ccccc2F)Oc2ccccc2F)cc1C`, which “activation” value is on record?
A: inactive: 1.99%

Q: With `NNC(=O)CN1C(=O)CN=C(c2ccccc2)c2cc(Br)ccc21` as the molecule, how does the Potency read?
A: inconclusive: 39.8 µM [activator, single point]

Q: Which Potency does the source give for `O=C(Nc1ccccc1Cl)OC1CN2CCC1CC2` (configuration not stated) here?
A: inconclusive: 3.16 µM [activator, partial curve] [neocarzinostatin DNA damage 30 min before lysis]

Q: For `C/C=C/c1ccc2c(c1)OCO2`, which Potency is on record?
A: inconclusive: 10 µM [activator, partial curve]

Q: For `Cc1cccc(CNCCc2ccccc2)n1`, which “activation” value is on record?
A: inactive: 0.579%

Q: With `CC(C)[C@H]1CC2C3CC=C4C[C@@H](O)CC[C@]4(C)C3CC[C@]2(C)[C@H]1O` (some centres not stated) as the molecule, how does the “activation” value read?
A: inactive: -0.13%

Q: With `Oc1c(Br)cc(Br)cc1Oc1ccc(Br)cc1Br` as the molecule, how does the Potency read?
A: inconclusive: 39.8 µM [activator, single point] [neocarzinostatin DNA damage 30 min before lysis]

Q: Which Potency does the source give for `CC12CN3CCN(CC(C3)C1O)C2` (configuration not stated) here?
A: inconclusive: 3.16 µM [activator, partial curve] [neocarzinostatin DNA damage 30 min before lysis]

Q: Which “activation” value does the source give for `FCCN(CCF)c1cccc(Cl)c1` here?
A: inactive: -3.03%

Q: With `CC1CCC(C(C)C)C(OC(=O)COC(=O)c2ccccc2N)C1` (configuration not stated) as the molecule, how does the Potency read?
A: inconclusive: 25.1 µM [activator, partial curve]

Q: With `c1ccc(Nc2cccc3ccccc23)cc1` as the molecule, how does the Potency read?
A: inconclusive: 35.5 µM [activator, single point] [neocarzinostatin DNA damage 30 min before lysis]

Q: With `FC(F)(F)Oc1ccc(C2NCc3ccccc3-n3cccc32)cc1` (configuration not stated) as the molecule, how does the Potency read?
A: inconclusive: 39.8 µM [activator, single point] [neocarzinostatin DNA damage 30 min before lysis]

Q: For `COCCNP(=O)(c1ccccc1)c1nc2ccccc2s1` (configuration not stated), which “activation” value is on record?
A: inactive: 6.78%

Q: For `C=CCn1c(O)c(C(C)=NC(C)c2ccccc2)c(=O)[nH]c1=O` (configuration not stated), which Potency is on record?
A: inconclusive: 39.8 µM [activator, single point]

Q: For `Cc1cccc(N2C(=O)NC(=O)/C(=C\C=C\c3ccco3)C2=O)c1`, which Potency is on record?
A: active: 3.98 µM

Q: For `COC(=O)C1=C(c2c(C)noc2C)C[C@@H]2CC[C@H]1N2C(=O)NCC1CC1`, which Potency is on record?
A: inconclusive: 39.8 µM [activator, partial curve] [neocarzinostatin DNA damage 30 min before lysis]

Q: Which Potency does the source give for `CCOC(=O)c1c(C)n(C(C)C)c2ccc(OC)cc12` here?
A: inconclusive: 39.8 µM [activator, partial curve, poor fit] [neocarzinostatin DNA damage 30 min before lysis]

Q: For `CSc1ccc(CN2CCN(c3ccccc3C)CC2)cc1`, which Potency is on record?
A: inconclusive: 22.4 µM [activator, single point]

Q: For `S=c1[nH]nc(Cn2c(-c3ccccn3)nc3ccccc32)n1-c1ccc2c(c1)OCCO2`, which Potency is on record?
A: inconclusive: 708 nM [activator, full curve, poor fit] [neocarzinostatin DNA damage 30 min before lysis]

Q: With `CC(=O)N1CCN(Cc2ccc(Cl)nc2)CC1` as the molecule, how does the Potency read?
A: inconclusive: 2.82 µM [activator, partial curve] [neocarzinostatin DNA damage 30 min before lysis]

Q: Which “activation” value does the source give for `C=CCN1C(=O)/C(=C/c2ccc3c(c2)CCCN3CCC)C(=O)NC1=S` here?
A: inactive: 4.77%

Q: Which Potency does the source give for `COCCCn1c(N)c(C(=O)NCCC(C)C)c2nc3ccccc3nc21` here?
A: inconclusive: 22.4 µM [activator, single point] [neocarzinostatin DNA damage 30 min before lysis]

Q: With `CC(=NCCc1c[nH]c2ccccc12)c1c(O)n(Cc2ccccc2)c(=O)[nH]c1=O` as the molecule, how does the Potency read?
A: active: 31.6 µM

Q: Which Potency does the source give for `CCN(CC)S(=O)(=O)c1ccc(C(=O)NC2CN3CCC2CC3)cc1` (configuration not stated) here?
A: inconclusive: 631 nM [activator, full curve, poor fit] [neocarzinostatin DNA damage 30 min before lysis]

Q: For `COc1ccc(OCc2nnc(SCC(=O)NCC3CCCO3)n2N)cc1` (configuration not stated), which Potency is on record?
A: inconclusive: 39.8 µM [activator, single point] [neocarzinostatin DNA damage 30 min before lysis]

Q: For `N=C(N)c1c(O)n(C2CCCCC2)c(=O)n(C2CCCCC2)c1=O`, which Potency is on record?
A: inconclusive: 39.8 µM [activator, single point]

Q: For `Cc1cc(C(C)(C)C)cc(C)c1CC1=NCCN1`, which Potency is on record?
A: inconclusive: 22.4 µM [activator, partial curve, poor fit]

Q: For `Cc1cc(C)cc(NC(=O)Cn2c(=O)oc3cc(S(=O)(=O)N4CC(C)CC(C)C4)ccc32)c1` (configuration not stated), which Potency is on record?
A: inconclusive: 3.55 µM [activator, single point]

Q: For `ClC(Cl)=C(c1ccc(Cl)cc1)c1ccc(Cl)cc1`, which Potency is on record?
A: inconclusive: 39.8 µM [activator, single point]

Q: Which Potency does the source give for `C=C(C=O)C[C@@H]1C[C@H](O)C2OC3C[C@]4(C)OC5/C=C\CC6OC7C(CC=CCC6OC5CCCC4OC3CC2O1)OC1CC2OC3CC(=O)OC3C[C@@H](C)C[C@@]2(C)OC1C[C@@H]7C` (some centres not stated) here?
A: active: 25.1 µM

Q: Which Potency does the source give for `CN1CCCC(C(O)(c2ccccc2)c2ccccc2)C1` (configuration not stated) here?
A: active: 3.16 µM

Q: With `CCOC(=O)C1CCCN(Cc2ccc(-c3ccccc3)cc2)C1` (configuration not stated) as the molecule, how does the Potency read?
A: active: 25.1 µM [neocarzinostatin DNA damage 30 min before lysis]

Q: Which “activation” value does the source give for `CCOc1cc2c(cc1OCC)-n1cccc1C(c1ccccc1F)NC2` (configuration not stated) here?
A: inactive: -3.47%
